PubChem BioAssay AID743454, Peter MacCallum Cancer Centre | 2014

- Aim: 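Genes whose loss kills vorinostat-resistant colon cancer cells under vorinostat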 (primary screen)
- Cells: human HCT116-VR colon cancer cells, selected for vorinostat resistance
- Reagent: siRNA pool against human genes, 40 nM siRNA pool
- Time to read-out: vorinostat for 24 h, read-out about 72 h after transfection
- Conditions: vorinostat at 2.5 µM final
- Read-out: 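Two measures, CellTiter-Fluor viability and luminescent caspase 3/7 activity, each as fold change against same-plate mock wells, mean of duplicates, then screen-wide robust z-score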
- Scale: viability robust z-score: higher = more viable cells than screen typical; caspase robust z-score: higher = more caspase 3/7 activity than screen typical
- Hit rule: 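Hits are knock-downs in viability class RV1/RV2 or caspase class CA1/CA2, excluding ones that killed cells in the no-drug cell-count arm; hits then retested with single siRNAs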
This is an unselected part of about 18,000 reagents. 450 of them (2.5%) count as active. 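Single biological run; no consistent viability z cut-off exists, so the class columns, not z-scores, define the calls.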 Entries without a mark were called inactive. No sequences are given here.

target gene | PubChem SID | viability hit class | caspase hit class | viability robust z-score | caspase robust z-score
P2RY13 (GeneID 53829) | SID152149621 | no change | no change | 0.25 | -0.8
ORC5 (GeneID 5001) | SID135620656 | no change | no change | 0.7 | -0.54
USP2 (GeneID 9099) | SID135621137 | no change | no change | -2.27 | 1.61
MSH4 (GeneID 4438) | SID134322925 | no change | no change | 0.36 | 2.08
SHPRH (GeneID 257218) | SID152149683 | no change | no change | 0.6 | -0.3
DGAT2 (GeneID 84649) | SID134314091 | no change | no change | 0.9 | 0.6
DEPP1 (GeneID 11067) | SID152153413 | no change | no change | 1.06 | 0.09
TMEM81 (GeneID 388730) | SID135625045 | no change | no change | -0.4 | -0.34
DNAI1 (GeneID 27019) | SID134316691 | no change | no change | -0.52 | -0.86
SARDH (GeneID 1757) | SID152154137 | no change | no change | 0.14 | -1.3
OR8K5 (GeneID 219453) | SID152152650 | no change | no change | -0.08 | 0.42
AFM (GeneID 173) | SID152154904 | no change | no change | 0.01 | -0.38
CD68 (GeneID 968) | SID135622085 | no change | no change | 0.11 | -0.02
LCT (GeneID 3938) | SID134316038 | no change | no change | -0.33 | -0.07
ADTRP (GeneID 84830) | SID135622855 | no change (active) | CA1 (caspase activation) | 0.22 | 5.21
CTIF (GeneID 9811) | SID135624101 | RV2 (reduced viability) (active) | no change | -3.45 | 0.93
OR5D18 (GeneID 219438) | SID152148369 | no change | no change | 0.47 | 0.09
TDRD1 (GeneID 56165) | SID135622544 | no change | no change | -0.59 | 2.48
CAMK4 (GeneID 814) | SID56478933 | no change | no change | -0.16 | -0.54
LMAN2L (GeneID 81562) | SID152150593 | no change | no change | 0.04 | -0.78
MTA2 (GeneID 9219) | SID134313353 | no change | no change | -1.41 | 3.32
MMP2 (GeneID 4313) | SID135621115 | no change | no change | 0.75 | -0.66
HYAL2 (GeneID 8692) | SID134317901 | no change (active) | CA1 (caspase activation) | -1.65 | 6.94
PDGFRB (GeneID 5159) | SID152152554 | no change | no change | -0.46 | -0.08
DDX55 (GeneID 57696) | SID135624629 | no change | no change | 0.41 | -1.08
OPRM1 (GeneID 4988) | SID152148128 | no change | no change | 0.94 | -0.86
PHF7 (GeneID 51533) | SID134322987 | no change | no change | -0.11 | -0.12
FNDC3A (GeneID 22862) | SID152147733 | no change | no change | 1.34 | 0.53
HIF1AN (GeneID 55662) | SID135620781 | no change | no change | 1.11 | 0.62
CENPC (GeneID 1060) | SID152154126 | no change | no change | -0.72 | 0.02
PPP6R3 (GeneID 55291) | SID152152181 | no change | no change | 0.2 | -0.04
PPARGC1A (GeneID 10891) | SID152149849 | no change | no change | -0.08 | -1.18
ATP11B (GeneID 23200) | SID152147768 | no change | no change | 0.26 | -1.32
SLC15A1 (GeneID 6564) | SID152147849 | no change | no change | 0.86 | 0.5
SERPINF2 (GeneID 5345) | SID152150799 | no change | no change | -1.04 | 2.6
ELMO1 (GeneID 9844) | SID152152737 | no change | no change | -0.53 | -0.33
CNBP (GeneID 7555) | SID135623831 | no change | no change | 0.77 | -0.29
CLLU1 (GeneID 574028) | SID135625411 | no change | no change | 0.34 | -0.1
TUSC3 (GeneID 7991) | SID134322848 | no change | no change | -0.59 | -0.14
MEI1 (GeneID 150365) | SID135624463 | no change | no change | -1.19 | 0.18
ILF3 (GeneID 3609) | SID135622323 | no change | no change | -2.16 | 0.78
MDH1 (GeneID 4190) | SID134314029 | no change | no change | -0.38 | -0.26
CRIP1 (GeneID 1396) | SID134320213 | no change | no change | 0.64 | -0.24
RPL21P44 (GeneID 402176) | SID135625295 | no change | no change | -0.58 | 1.78
SPRR3 (GeneID 6707) | SID135623887 | no change | no change | 0.2 | -0.07
MYOCD (GeneID 93649) | SID134319921 | no change | no change | -0.05 | 1.71
CD200R1L (GeneID 344807) | SID135625262 | no change | no change | 1.23 | 0.81
MMP8 (GeneID 4317) | SID134311394 | no change | no change | 1.2 | -0.5
TEDC1 (GeneID 283643) | SID135623490 | no change | no change | 0.34 | 0.18
ARID4B (GeneID 51742) | SID152150792 | no change | no change | 1.58 | -0.54
MGST3 (GeneID 4259) | SID134313257 | no change | no change | -2.11 | 3.46
OR52N1 (GeneID 79473) | SID152151903 | no change | no change | -0.88 | -0.99
PASK (GeneID 23178) | SID56478950 | no change | no change | -0.36 | 3.83
OSR2 (GeneID 116039) | SID134319234 | no change | no change | 0.04 | -0.36
PAOX (GeneID 196743) | SID135621574 | no change | no change | -0.52 | 0.52
CYLC2 (GeneID 1539) | SID135622092 | no change | no change | 1.05 | -0.36
GALNT3 (GeneID 2591) | SID152147671 | no change | no change | -1.59 | 3.24
ICA1L (GeneID 130026) | SID135623223 | no change | no change | 0.09 | -0.11
ERCC1 (GeneID 2067) | SID134311724 | no change | no change | -1.08 | 0.99
FASTKD1 (GeneID 79675) | SID135623282 | no change | no change | -0.51 | 1.25
ALG2 (GeneID 85365) | SID152148135 | no change | no change | 0.94 | 0.2
ANKRD7 (GeneID 56311) | SID152147256 | no change | no change | -0.45 | -1.02
FASN (GeneID 2194) | SID134310189 | no change | no change | 0.72 | -0.73
NFAT5 (GeneID 10725) | SID134314347 | no change | no change | -0.37 | 1.86
VSNL1 (GeneID 7447) | SID152150770 | no change | no change | -1.19 | 2.09
PPP1R12C (GeneID 54776) | SID152155071 | no change | no change | -0.35 | -0.14
PHC1 (GeneID 1911) | SID152153098 | no change | no change | -0.67 | -0.45
SLC20A2 (GeneID 6575) | SID134312481 | no change | no change | -0.29 | -0.55
NME6 (GeneID 10201) | SID56479120 | no change | no change | -1.4 | 1.76
ARHGEF18 (GeneID 23370) | SID134314382 | no change | no change | -0.82 | 0.74
SERPINE1 (GeneID 5054) | SID134323173 | no change | no change | -0.04 | 0.12
STAC3 (GeneID 246329) | SID134319884 | no change | no change | 0.54 | 0.56
FER1L6 (GeneID 654463) | SID135625557 | no change | no change | 0.15 | -0.86

Part of the list above, reformatted:
{"target gene": "CRIP1 (GeneID 1396)", "PubChem SID": "SID134320213", "viability hit class": "no change", "caspase hit class": "no change", "viability robust z-score": 0.64, "caspase robust z-score": -0.24}
{"target gene": "RPL21P44 (GeneID 402176)", "PubChem SID": "SID135625295", "viability hit class": "no change", "caspase hit class": "no change", "viability robust z-score": -0.58, "caspase robust z-score": 1.78}
{"target gene": "SPRR3 (GeneID 6707)", "PubChem SID": "SID135623887", "viability hit class": "no change", "caspase hit class": "no change", "viability robust z-score": 0.2, "caspase robust z-score": -0.07}
{"target gene": "MYOCD (GeneID 93649)", "PubChem SID": "SID134319921", "viability hit class": "no change", "caspase hit class": "no change", "viability robust z-score": -0.05, "caspase robust z-score": 1.71}
{"target gene": "CD200R1L (GeneID 344807)", "PubChem SID": "SID135625262", "viability hit class": "no change", "caspase hit class": "no change", "viability robust z-score": 1.23, "caspase robust z-score": 0.81}
{"target gene": "MMP8 (GeneID 4317)", "PubChem SID": "SID134311394", "viability hit class": "no change", "caspase hit class": "no change", "viability robust z-score": 1.2, "caspase robust z-score": -0.5}
{"target gene": "TEDC1 (GeneID 283643)", "PubChem SID": "SID135623490", "viability hit class": "no change", "caspase hit class": "no change", "viability robust z-score": 0.34, "caspase robust z-score": 0.18}
{"target gene": "ARID4B (GeneID 51742)", "PubChem SID": "SID152150792", "viability hit class": "no change", "caspase hit class": "no change", "viability robust z-score": 1.58, "caspase robust z-score": -0.54}
